Measured values taken from publication PMC9649702.
These are yes or no findings as the source states them, for the method shown. In cells and extracts the contact can be indirect. Some results given as binding are weak or reduced against the parent protein; the word gives no strength.

By UniProt entry, the sequences of proteins in these tests, tags left out. Where a name states a change or a piece, a line headed by the entry shows the natural chain unless it says otherwise.
UniProt Q6IAA8: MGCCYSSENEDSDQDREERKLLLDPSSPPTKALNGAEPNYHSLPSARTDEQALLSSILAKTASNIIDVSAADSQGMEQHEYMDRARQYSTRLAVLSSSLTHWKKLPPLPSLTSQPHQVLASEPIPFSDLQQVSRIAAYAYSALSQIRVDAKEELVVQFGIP
UniProt Q8NFG4: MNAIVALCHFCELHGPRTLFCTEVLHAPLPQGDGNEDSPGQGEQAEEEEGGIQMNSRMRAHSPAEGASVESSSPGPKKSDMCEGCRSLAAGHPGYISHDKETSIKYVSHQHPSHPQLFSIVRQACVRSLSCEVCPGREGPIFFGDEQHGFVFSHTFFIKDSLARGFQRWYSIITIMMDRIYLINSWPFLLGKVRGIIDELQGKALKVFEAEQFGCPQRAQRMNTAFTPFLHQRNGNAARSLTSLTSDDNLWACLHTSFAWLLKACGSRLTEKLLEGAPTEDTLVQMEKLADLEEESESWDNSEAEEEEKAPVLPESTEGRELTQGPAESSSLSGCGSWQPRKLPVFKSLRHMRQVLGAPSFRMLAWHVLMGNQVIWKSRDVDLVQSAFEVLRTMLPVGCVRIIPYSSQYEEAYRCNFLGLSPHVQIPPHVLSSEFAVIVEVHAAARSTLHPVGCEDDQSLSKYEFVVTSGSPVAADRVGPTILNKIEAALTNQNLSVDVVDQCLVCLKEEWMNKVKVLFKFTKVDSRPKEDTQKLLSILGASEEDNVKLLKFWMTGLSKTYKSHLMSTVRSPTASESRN

Target: Lamtor1-GFP (UniProt Q6IAA8)
Assay: co-IP; Lamtor1-GFP precipitated with GFP-Trap magnetic agarose beads (binding control beads beside it) from lysates of WT and TSC2 KO HEK293T cells, fed or amino-acid-starved for 1 or 3 h; DMSO, rapamycin (200 nM) or torin (1 uM) for 1 h before starvation; immunoblotting

binding: binds
Substance: FLCN:FNIP2 complex (endogenous) (from UniProt Q8NFG4 1-579; Q9P278 1-1114)
